Measured values: the supplement of paper PMC12542422
Counter-ions that a name gives are not always drawn. ± gives the standard deviation of the averaged measurements. The list shows a part of the results. Values are raw readings; no control value is given beside them.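 Across three biological replicates, HeLa cells were imaged for ribosome assembly using ENP1 staining (export block present or absent) or inducible tagged ribosomal protein reporters. Machine learning classified each cell's signal localization relative to DMSO controls. Hits exceeded the DMSO false-positive mean by five standard deviations and were then visually confirmed.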

test system: HeLa K (ENP1 immunofluorescence, +LMB); assay: fraction of cells with nucleolar or nucleolar/nucleoplasmic ENP1 signal (MainHitrate); higher = more cells with nucleolar/nuclear readout signal (for ENP1 -LMB: less RNAPI inhibition; for +LMB ENP1 and RP reporters: stronger nuclear/nucleolar retention, i.e. ribosome biogenesis defect); details: concentration: 1 µM; treatment time: 6 h; ENP1 +LMB; leptomycin B: 20 nM, last 1.5 h

| Compound | fraction |
| --- | --- |
| CCCCC(=O)O[C@]1(C(=O)CO)[C@@H](C)C[C@H]2[C@@H]3CCC4=CC(=O)C=C[C@]4(C)[C@@]3(F)[C@@H](O)C[C@@]21C [Betamethasone valerate (Betnovate)] | 0.076 ± 0.056 |
| O=c1oc2cc(O)ccc2s1 [Tioxolone] | 0.103 ± 0.14 |
| CN1C(C(=O)Nc2ccccn2)=C(O)c2ccccc2S1(=O)=O [Piroxicam (Feldene)] | 0.0683 ± 0.063 |
| CC1(C)S[C@@H]2[C@H](NC(=O)[C@H](NC(=O)N3CCNC3=O)c3ccccc3)C(=O)N2[C@H]1C(=O)O [Azlocillin sodium salt] | 0.0991 ± 0.14 |
| CN1CCC[C@H]1c1cccnc1 [Nicotine Ditartrate] | 0.254 ± 0.39 |
| CO[C@H]1/C=C/O[C@@]2(C)Oc3c(C)c(O)c4c(O)c(c(/C=N/N5CCN(C)CC5)c(O)c4c3C2=O)NC(=O)/C(C)=C\C=C\[C@H](C)[C@H](O)[C@@H](C)[C@@H](O)[C@@H](C)[C@H](OC(C)=O)[C@@H]1C [Rifampin (Rifadin, Rimactane)] | 0.0863 ± 0.091 |
| CCOC(=O)C1=C[C@@H](OC(CC)CC)[C@H](NC(C)=O)[C@@H](N)C1 [Oseltamivir phosphate (Tamiflu)] | 0.067 ± 0.087 |
| O=S(=O)(O)NC1CCCCC1 [Cyclamic  acid] | 0.0725 ± 0.1 |
| CS(=O)(=O)CCNCc1ccc(-c2ccc3ncnc(Nc4ccc(OCc5cccc(F)c5)c(Cl)c4)c3c2)o1 [Lapatinib] | 0.162 ± 0.24 |
| Nc1ccc(/N=N/c2ccccc2)c(N)n1 [Phenazopyridine HCl] | 0.105 ± 0.15 |
| COC(c1ccccc1)(c1ccccc1)[C@H](Oc1nc(C)cc(C)n1)C(=O)O [Ambrisentan] | 0.0479 ± 0.061 |
| Nc1[nH]cnc2ncnc1-2 [Adenine sulfate] | 0.105 ± 0.14 |
| CC(C(=O)O)c1cccc(Oc2ccccc2)c1 (configuration not stated) [Fenoprofen calcium] | 0.0554 ± 0.07 |
| O=C(O)C1(C(=O)O)CCC1.[NH2-].[NH2-].[Pt+2] [Carboplatin] | 0.1 ± 0.1 |
| CC[C@@H](CO)NCCN[C@@H](CC)CO [Ethambutol HCl] | 0.13 ± 0.19 |
| CCCCOc1cc(C(=O)OCCN(CC)CC)ccc1N [Oxybuprocaine HCl] | 0.0931 ± 0.14 |
| O=C(O)c1ccccc1 [Benzoic acid] | 0.0347 ± 0.038 |
| Cc1c(Cl)cccc1Nc1ccccc1C(=O)O [Tolfenamic acid] | 0.0403 ± 0.044 |
| COc1ccc(CNc2nc(N3CCC[C@H]3CO)ncc2C(=O)NCc2ncccn2)cc1Cl [Avanafil] | 0.0345 ± 0.039 |
| CN(C(=O)CN(CCO)CC(=O)N(C)C(C)(C)Cc1ccccc1)C(C)(C)Cc1ccccc1 [Oxethazaine] | 0.0909 ± 0.11 |
| CCN(Cc1ccncc1)C(=O)C(CO)c1ccccc1 (configuration not stated) [Tropicamide] | 0.124 ± 0.19 |
| CCN1CCN(c2cc3c(cc2F)c(=O)c(C(=O)O)cn3C2CC2)CC1 [Enrofloxacin] | 0.0643 ± 0.076 |
| CC(C)(O/N=C(\C(=O)N[C@@H]1C(=O)N2C(C(=O)[O-])=C(C[n+]3ccccc3)CS[C@H]12)c1csc(N)n1)C(=O)O [Ceftazidime Pentahydrate] | 0.105 ± 0.14 |
| C[C@@H](O)[C@H]1C(=O)N2C(C(=O)O)=C(S[C@@H]3CN[C@H](C(=O)N(C)C)C3)[C@H](C)[C@H]12 [Meropenem] | 0.0928 ± 0.085 |
| CCN(CC)CC#CCOC(=O)C(O)(c1ccccc1)C1CCCCC1 (configuration not stated) [Oxybutynin (Ditropan)] | 0.117 ± 0.16 |
| NC(CO)C(=O)NNCc1ccc(O)c(O)c1O (configuration not stated) [Benserazide] | 0.16 ± 0.24 |
| NS(=O)(=O)c1cc(Cl)c(Cl)c(S(N)(=O)=O)c1 [Dichlorphenamide (Diclofenamide)] | 0.0886 ± 0.12 |

For convenience, some entries already given:

| Compound | fraction |
| --- | --- |
| CC(C)(O/N=C(\C(=O)N[C@@H]1C(=O)N2C(C(=O)[O-])=C(C[n+]3ccccc3)CS[C@H]12)c1csc(N)n1)C(=O)O [Ceftazidime Pentahydrate] | 0.105 ± 0.14 |
| C[C@@H](O)[C@H]1C(=O)N2C(C(=O)O)=C(S[C@@H]3CN[C@H](C(=O)N(C)C)C3)[C@H](C)[C@H]12 [Meropenem] | 0.0928 ± 0.085 |
| CCN(CC)CC#CCOC(=O)C(O)(c1ccccc1)C1CCCCC1 (configuration not stated) [Oxybutynin (Ditropan)] | 0.117 ± 0.16 |
| NC(CO)C(=O)NNCc1ccc(O)c(O)c1O (configuration not stated) [Benserazide] | 0.16 ± 0.24 |
